# US20220348663A1 (Y BIOLOGICS, published 2022)
# Numbering of substitutions follows the chain as printed. No constants are given. Whether binding was seen depends on the method and setting. Some results given as binding are weak or reduced against the parent protein; the word gives no strength.
# B1: CD276-039C05_LS_002B07 (antibody, V domains shown)
# VH: QVQLVESGAEVKKPGSSVKVSCKASGGTFSSYAISWVRQAPGQGLEWMGRIIPILGIANYAQKFQGRVTITADKSTSTAYMELSSLRSEDTAVYYCANGGDSSSWYTFDYWGQGTLITVSS
# VL: DIQMTQSPSSLSASVGDRVTITCRASQGISSYLAWYQQKPGKAPKLLIYAASTLQSGVPSRFSGSGSGTDFTLTISSLQPEDFATYYCQQYYSFPLTFGGGTKVEIK
# B2: CD276-039C05_LS_002C07 (antibody, V domains shown)
# VH: B1 VH
# VL: DIQMTQSPSTLSASVGDRVTITCRAGQSIRSWLAWYQQKPGEAPKLLIYKAYYLQTGVPSRFSGSGAGTEFTLTISSLQPDDFATYYCQQYNTSPLTFGGGTKVEIK
# B3: CD276-033E03 (antibody, V domains shown)
# VH: QVQLVESGGGLVQSGGSLRLSCAASGFTFSSYAMSWVRQAPGKGLEWVSVISGSGGSRYYADSVKGRFTISRDNSKNTLYLQMNSLRAEDTAVYYCASHTIPGAWDVWGQGTLVTVSS
# VL: QSALTQPASVSGSPGQSITISCTGTTRDVGGYNYVSWYQQHPGKAPKLMIYDVNNRPSGVSYRFSGSKSGNTASLTISGLQAEDEADYYCSSYTTSSRRVFGTGTKVTVL
# B4: CD276-039C05 (antibody, V domains shown)
# VH: B1 VH
# VL: DIQMTQSPSTLSASVGDKLTLTCRASQSISRWLAWYQQKPGKAPKLLIYKASYLQTGVPSRFSGSGTGTEFTLTISSLQPDDFATYYCQQYNTFPLTFAGGTKVEIK
# notes: Converted from scFv to IgG form; Parent of the _LS_ light-chain variants
# What was measured:
# [1] = molecular target: T1, human B7-H3 expressed on the cell surface (human) (UniProt Q5ZPR3); test: flow cytometry, geometric mean (FITC), on A498 and NCI-N87 cells
# T1 sequence: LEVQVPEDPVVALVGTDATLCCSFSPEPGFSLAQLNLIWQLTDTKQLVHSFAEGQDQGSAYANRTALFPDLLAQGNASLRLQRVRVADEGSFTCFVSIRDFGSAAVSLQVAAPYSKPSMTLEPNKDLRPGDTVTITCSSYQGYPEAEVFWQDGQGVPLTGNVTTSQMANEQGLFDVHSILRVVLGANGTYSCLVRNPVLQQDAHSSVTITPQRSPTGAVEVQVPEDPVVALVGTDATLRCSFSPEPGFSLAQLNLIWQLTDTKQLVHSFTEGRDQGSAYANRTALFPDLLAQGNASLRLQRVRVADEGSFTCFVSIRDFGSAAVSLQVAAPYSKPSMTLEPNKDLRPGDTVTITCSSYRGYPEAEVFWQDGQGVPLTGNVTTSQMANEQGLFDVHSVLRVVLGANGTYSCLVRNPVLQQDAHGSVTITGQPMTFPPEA
# [2] = molecular target: T2, rat B7-H3 (#80380-R08H, Sino) (rat, UniProt Q7TPB4 29-244); test: ELISA on coated Rat B7H3, OD450nm
# T2 construct: Bought protein; also called rat B7-H3 antigen
# T2 sequence (looked up): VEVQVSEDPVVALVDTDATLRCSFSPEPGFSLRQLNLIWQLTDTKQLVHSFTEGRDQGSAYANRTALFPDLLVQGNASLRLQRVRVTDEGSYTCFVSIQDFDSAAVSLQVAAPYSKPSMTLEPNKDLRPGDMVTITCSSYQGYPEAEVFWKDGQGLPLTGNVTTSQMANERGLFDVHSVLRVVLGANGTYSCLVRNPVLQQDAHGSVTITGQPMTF
# [3] = molecular target: T3, Mouse B7-H3 (#50973-M08H, Sino) (mouse, UniProt Q8VE98 29-244); test: ELISA on coated Mouse B7H3, OD450nm
# T3 construct: Bought protein; also called mouse B7-H3 antigen
# T3 sequence (looked up): T2 sequence (looked up) with R33A, A62S, D131N, L156V, M214L
# [4] = molecular target: T4, Human B7-H3 (#S1435, Y-Biologics) (human) (UniProt Q5ZPR3); test: ELISA on coated Human B7H3, OD450nm
# T4 sequence: T1 sequence
# [5] = molecular target: T1, human B7-H3 expressed on the cell surface (human); test: flow cytometry on cell lines expressing human B7-H3 (FIG. 6d, 'the six antibodies')
# [6] = molecular target: T1, human B7-H3 expressed on the cell surface (human); test: flow cytometry, geometric mean (FITC), on HEK293E/B7H3+++ and HEK293E cells
# [7] = molecular target: T1, human B7-H3 expressed on the cell surface (human); test: flow cytometry on cell lines expressing human B7-H3 (FIG. 6a)
# [8] = molecular target: T1, human B7-H3 expressed on the cell surface (human); test: flow cytometry on cell lines expressing human B7-H3 (FIG. 6c)
# [9] = molecular target: T1, human B7-H3 expressed on the cell surface (human); test: flow cytometry, geometric mean (FITC), on HEK293E/B7H3+++, HEK293E, A498, Calu-6 and NCI-N87 cells
binder,measurement,setting,value
B1,binding,[1],binds
same,binding,[2],binds
same,binding,[3],binds
same,binding,[4],binds
same,binding,[5],binds
B2,binding,[1],binds
same,binding,[5],binds
B3,binding,[6],binds
same,binding,[7],binds
B4,binding,[8],binds
same,binding,[9],binds
